Test results published in patent US20190282673A1, “STAPHTAME ACTIVITY ON BIOFILMS” (priority 2016, published 2019).
Some entries share one result that the patent states for a list of compounds.

System: S. aureus biofilms
Assay: MBIC and checkerboard synergy on preformed biofilm (MTT assay)
Type: cell-based, Staphylococcus aureus
Conditions: antibiotic alone on S. aureus biofilms
Method: […] LB supplemented with 50 μg/mL CaCl2 was used for daptomycin treatment wells. The contents of the well was aspirated out and discarded. The biofilm adhered to the wells was quantified by MTT assay as described above. The MBIC was defined as the minimum concentration of P128 or the drug showing no colour development. […] In each experiment, in addition to the combination MBIC, the MBIC of each drug was also determined individually. The fractional MBIC concentrations were determined by MTT dye method as described above. The FICI and synergy was also calculated in a similar manner.
The ability of P128 to inhibit growth of S. aureus in a preformed biofilm was measured by determining minimum biofilm inhibition concentration (MBIC), defined as minimum concentration showing growth inhibition in a MTT based assay. […] 11:226.
The assay was optimized using the standard S. aureus strain ATCC 29213. […] The absorbance was read at 570 nm in a microplate reader. […] The biofilm adhered to the wells was quantified by MTT assay as described above. […] In each experiment, in addition to the combination MBIC, the MBIC of each drug was also determined individually. The fractional MBIC concentrations were determined by MTT dye method as described above. The FICI and synergy was also calculated in a similar manner. […]

gentamycin [reference compound]
Fold increase of MBIC over planktonic MIC values: 625-2500 fold
